The text below walks through data of article PMC8184862.

Protein sequences, listed by entry. Tags and fused reporters are not part of them.
UniProt P47196: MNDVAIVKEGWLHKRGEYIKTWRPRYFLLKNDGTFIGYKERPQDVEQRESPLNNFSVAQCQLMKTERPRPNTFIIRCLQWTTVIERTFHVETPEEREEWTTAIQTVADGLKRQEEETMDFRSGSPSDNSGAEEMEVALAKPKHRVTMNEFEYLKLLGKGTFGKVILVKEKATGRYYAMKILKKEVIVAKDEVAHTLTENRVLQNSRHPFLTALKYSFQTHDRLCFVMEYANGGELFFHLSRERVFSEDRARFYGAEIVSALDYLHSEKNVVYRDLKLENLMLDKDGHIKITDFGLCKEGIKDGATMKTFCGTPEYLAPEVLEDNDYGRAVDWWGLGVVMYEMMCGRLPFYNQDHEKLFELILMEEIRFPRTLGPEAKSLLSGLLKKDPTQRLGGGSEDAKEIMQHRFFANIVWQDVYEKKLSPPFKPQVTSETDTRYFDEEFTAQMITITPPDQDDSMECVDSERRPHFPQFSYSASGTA
UniProt Q62812: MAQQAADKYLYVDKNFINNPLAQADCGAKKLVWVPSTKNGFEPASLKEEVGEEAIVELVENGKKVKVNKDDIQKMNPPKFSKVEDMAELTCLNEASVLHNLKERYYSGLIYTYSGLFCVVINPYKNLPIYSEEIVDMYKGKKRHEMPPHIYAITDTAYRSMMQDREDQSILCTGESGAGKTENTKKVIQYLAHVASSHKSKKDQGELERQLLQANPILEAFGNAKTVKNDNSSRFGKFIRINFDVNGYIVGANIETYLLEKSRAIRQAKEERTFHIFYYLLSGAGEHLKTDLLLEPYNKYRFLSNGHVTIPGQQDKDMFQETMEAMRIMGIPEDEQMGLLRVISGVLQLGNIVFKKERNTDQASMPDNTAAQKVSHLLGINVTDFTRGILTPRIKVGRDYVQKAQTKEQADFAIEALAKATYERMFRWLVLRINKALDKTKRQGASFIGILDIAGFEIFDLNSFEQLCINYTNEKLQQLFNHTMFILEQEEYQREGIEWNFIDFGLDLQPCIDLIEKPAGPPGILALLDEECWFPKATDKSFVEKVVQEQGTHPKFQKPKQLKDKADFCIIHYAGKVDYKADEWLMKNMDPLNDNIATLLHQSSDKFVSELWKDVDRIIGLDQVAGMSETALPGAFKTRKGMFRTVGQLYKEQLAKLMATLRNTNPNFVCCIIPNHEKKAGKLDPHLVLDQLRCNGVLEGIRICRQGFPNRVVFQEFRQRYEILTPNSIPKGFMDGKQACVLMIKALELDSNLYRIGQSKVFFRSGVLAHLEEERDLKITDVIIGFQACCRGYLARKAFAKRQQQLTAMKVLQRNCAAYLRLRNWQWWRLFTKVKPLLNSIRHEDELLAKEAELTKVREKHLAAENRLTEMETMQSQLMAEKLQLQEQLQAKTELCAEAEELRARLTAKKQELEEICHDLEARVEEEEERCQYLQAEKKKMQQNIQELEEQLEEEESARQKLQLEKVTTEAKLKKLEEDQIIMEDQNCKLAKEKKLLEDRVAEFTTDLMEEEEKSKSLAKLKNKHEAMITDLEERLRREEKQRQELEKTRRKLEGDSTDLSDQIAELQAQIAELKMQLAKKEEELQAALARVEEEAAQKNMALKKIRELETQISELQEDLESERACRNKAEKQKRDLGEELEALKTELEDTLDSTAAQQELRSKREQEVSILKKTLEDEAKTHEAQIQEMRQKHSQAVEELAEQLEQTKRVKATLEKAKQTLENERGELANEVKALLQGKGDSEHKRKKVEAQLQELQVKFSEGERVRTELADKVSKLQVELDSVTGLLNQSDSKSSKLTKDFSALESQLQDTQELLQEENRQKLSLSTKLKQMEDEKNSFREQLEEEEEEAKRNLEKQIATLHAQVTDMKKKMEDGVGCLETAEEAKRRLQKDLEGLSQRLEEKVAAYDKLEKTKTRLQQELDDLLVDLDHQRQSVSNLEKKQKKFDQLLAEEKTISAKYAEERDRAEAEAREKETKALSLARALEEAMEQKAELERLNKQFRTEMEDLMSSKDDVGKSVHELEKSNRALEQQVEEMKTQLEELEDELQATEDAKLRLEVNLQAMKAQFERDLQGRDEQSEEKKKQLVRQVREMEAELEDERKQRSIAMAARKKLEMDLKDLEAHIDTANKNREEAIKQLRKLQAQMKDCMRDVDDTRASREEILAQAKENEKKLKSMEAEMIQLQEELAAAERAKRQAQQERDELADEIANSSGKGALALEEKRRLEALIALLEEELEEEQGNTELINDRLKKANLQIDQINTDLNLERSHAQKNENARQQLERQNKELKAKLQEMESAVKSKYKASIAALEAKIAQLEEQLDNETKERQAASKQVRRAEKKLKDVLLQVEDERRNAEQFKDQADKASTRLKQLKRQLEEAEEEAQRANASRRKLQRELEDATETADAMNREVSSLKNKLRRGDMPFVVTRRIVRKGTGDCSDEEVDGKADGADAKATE

Results are given in words; binding and its absence hold for the method and conditions named. In cells and extracts the contact can be indirect. Some results given as binding are weak or reduced against the parent protein; the word gives no strength.

For the experiment, the target named is Akt1 (rat (endogenous in REKs)) (UniProt P47196). As to the kind of experiment: co-IP; immunoprecipitation with Akt1 antibody (IgG1 control) from REK lysate in RIPA buffer, Dynabeads Protein G; immunoblot for total Akt, actin, Arp3 and Myh9. For orientation: In western blotting, separated proteins are transferred to a membrane and probed.

Myh9 (from UniProt Q62812 1-1961): the binding result was “binds”.
